# The list shows a part of the results.
# Experiments:
# Test in all cases: glycan array binding signal (z-score within array); higher = stronger binding
# Conditions in all cases: glycan notation: IUPAC condensed, linker removed
# Glc(a1-4)Glc = molecular target: Glc(a1-4)Glc
# Procedure, shortened: (§1)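 Columns mapping to the same glycan were averaged after glycan names were converted to IUPAC-condensed notation. The data come from 3228 arrays in the Consortium for Functional Glycomics database, limited to those with an available protein sequence. Binding is reported as a within-array Z-score averaged across arrays of one protein sequence and across linkers.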
# [1] = molecular target: Glc(a1-4)Glc(a1-4)Glc(a1-4)Glc
# Procedure, shortened: as §1
# Glc(a1-6)Glc(a1-6)Glc = molecular target: Glc(a1-6)Glc(a1-6)Glc
# Procedure, shortened: as §1
# [2] = molecular target: Glc(a1-6)Glc(a1-6)Glc(a1-6)Glc
# Procedure, shortened: as §1
# Glc(b1-4)Glc = molecular target: Glc(b1-4)Glc
# Procedure, shortened: as §1
# Glc(b1-6)Glc = molecular target: Glc(b1-6)Glc
# Procedure, shortened: as §1
# GlcA(b1-3)Gal = molecular target: GlcA(b1-3)Gal
# Procedure, shortened: as §1
# GlcA(b1-3)GlcNAc = molecular target: GlcA(b1-3)GlcNAc
# Procedure, shortened: as §1
# GlcA(b1-6)Gal = molecular target: GlcA(b1-6)Gal
# Procedure, shortened: as §1
# [3] = molecular target: GlcNAc(a1-3)Gal(b1-4)GlcNAc
# Procedure, shortened: as §1
# [4] = molecular target: GlcNAc(a1-4)Gal(b1-3)GlcNAc
# Procedure, shortened: as §1
# [5] = molecular target: GlcNAc(a1-4)Gal(b1-4)GalNAc
# Procedure, shortened: as §1
# [6] = molecular target: GlcNAc(a1-4)Gal(b1-4)GlcNAc
# Procedure, shortened: as §1
# [7] = molecular target: GlcNAc(a1-4)Gal(b1-4)GlcNAc(b1-3)Gal(b1-4)Glc
# Procedure, shortened: as §1
# [8] = molecular target: GlcNAc(a1-4)Gal(b1-4)GlcNAc(b1-3)Gal(b1-4)GlcNAc
# Procedure, shortened: as §1
# [9] = molecular target: GlcNAc(a1-4)Gal(b1-4)GlcNAc(b1-3)Gal(b1-4)GlcNAc(b1-3)Gal(b1-4)GlcNAc
# Procedure, shortened: as §1
# [10] = molecular target: GlcNAc(a1-4)Gal(b1-4)GlcNAc(b1-3)Gal(b1-4)[Fuc(a1-3)]GlcNAc(b1-3)Gal(b1-4)[Fuc(a1-3)]GlcNAc
# Procedure, shortened: as §1
# [11] = molecular target: GlcNAc(a1-6)Gal(b1-4)GlcNAc
# Procedure, shortened: as §1
# [12] = molecular target: GlcNAc(b1-2)Gal(b1-3)GalNAc
# Procedure, shortened: as §1
# [13] = molecular target: GlcNAc(b1-2)Man(a1-3)[GlcNAc(b1-2)Man(a1-6)]Man(b1-4)GlcNAc(b1-4)GlcNAc
# Procedure, shortened: as §1
# [14] = molecular target: GlcNAc(b1-2)Man(a1-3)[GlcNAc(b1-2)Man(a1-6)]Man(b1-4)GlcNAc(b1-4)[Fuc(a1-6)]GlcNAc
# Procedure, shortened: as §1
# [15] = molecular target: GlcNAc(b1-2)Man(a1-3)[GlcNAc(b1-4)][GlcNAc(b1-2)Man(a1-6)]Man(b1-4)GlcNAc(b1-4)GlcNAc
# Procedure, shortened: as §1
binder,measurement,setting,value
"Latrophilin-3 (Homo sapiens), Q9HAR2 (protein) MWPSQLLIFMMLLAPIIHAFSRAPIPMAVVRRELSCESYPIELRCPGTDVIMIESANYGRTDDKICDSDPAQMENIRCYLPDAYKIMSQRCNNRTQCAVVAGPDVFPDPCPGTYKYLEVQYECVPYKVEQKVFLCPGLLKGVYQSEHLFESDHQSGAWCKDPLQASDKIYYMPWTPYRTDTLTEYSSKDDFIAGRPTTTYKLPHRVDGTGFVVYDGALFFNKERTRNIVKFDLRTRIKSGEAIIANANYHDTSPYRWGGKSDIDLAVDENGLWVIYATEQNNGKIVISQLNPYTLRIEGTWDTAYDKRSASNAFMICGILYVVKSVYEDDDNEATGNKIDYIYNTDQSKDSLVDVPFPNSYQYIAAVDYNPRDNLLYVWNNYHVVKYSLDFGPLDSRSGQAHHGQVSYISPPIHLDSELERPSVKDISTTGPLGMGSTTTSTTLRTTTLSPGRSTTPSVSGRRNRSTSTPSPAVEVLDDMTTHLPSASSQIPALEESCEAVEAREIMWFKTRQGQIAKQPCPAGTIGVSTYLCLAPDGIWDPQGPDLSNCSSPWVNHITQKLKSGETAANIARELAEQTRNHLNAGDITYSVRAMDQLVGLLDVQLRNLTPGGKDSAARSLNKAMVETVNNLLQPQALNAWRDLTTSDQLRAATMLLHTVEESAFVLADNLLKTDIVRENTDNIKLEVARLSTEGNLEDLKFPENMGHGSTIQLSANTLKQNGRNGEIRVAFVLYNNLGPYLSTENASMKLGTEALSTNHSVIVNSPVITAAINKEFSNKVYLADPVVFTVKHIKQSEENFNPNCSFWSYSKRTMTGYWSTQGCRLLTTNKTHTTCSCNHLTNFAVLMAHVEVKHSDAVHDLLLDVITWVGILLSLVCLLICIFTFCFFRGLQSDRNTIHKNLCISLFVAELLFLIGINRTDQPIACAVFAALLHFFFLAAFTWMFLEGVQLYIMLVEVFESEHSRRKYFYLVGYGMPALIVAVSAAVDYRSYGTDKVCWLRLDTYFIWSFIGPATLIIMLNVIFLGIALYKMFHHTAILKPESGCLDNIKSWVIGAIALLCLLGLTWAFGLMYINESTVIMAYLFTIFNSLQGMFIFIFHCVLQKKVRKEYGKCLRTHCCSGKSTESSIGSGKTSGSRTPGRYSTGSQSRIRRMWNDTVRKQSESSFITGDINSSASLNREGLLNNARDTSVMDTLPLNGNHGNSYSIASGEYLSNCVQIIDRGYNHNETALEKKILKELTSNYIPSYLNNHERSSEQNRNLMNKLVNNLGSGREDDAIVLDDATSFNHEESLGLELIHEESDAPLLPPRVYSTENHQPHHYTRRRIPQDHSESFFPLLTNEHTEDLQSPHRDSLYTSMPTLAGVAATESVTTSTQTEPPPAKCGDAEDVYYKSMPNLGSRNHVHQLHTYYQLGRGSSDGFIVPPNKDGTPPEGSSKGPAHLVTSL",glycan array binding signal (z-score),Glc(a1-4)Glc,-0.053
same,glycan array binding signal (z-score),[1],-0.335
same,glycan array binding signal (z-score),Glc(a1-6)Glc(a1-6)Glc,-0.086
same,glycan array binding signal (z-score),[2],-0.465
same,glycan array binding signal (z-score),Glc(b1-4)Glc,-0.632
same,glycan array binding signal (z-score),Glc(b1-6)Glc,-0.237
same,glycan array binding signal (z-score),GlcA(b1-3)Gal,-0.001
same,glycan array binding signal (z-score),GlcA(b1-3)GlcNAc,-1.03
same,glycan array binding signal (z-score),GlcA(b1-6)Gal,1.65
same,glycan array binding signal (z-score),[3],-0.933
same,glycan array binding signal (z-score),[4],0.839
same,glycan array binding signal (z-score),[5],-0.452
same,glycan array binding signal (z-score),[6],-0.448
same,glycan array binding signal (z-score),[7],-1.34
same,glycan array binding signal (z-score),[8],1.28
same,glycan array binding signal (z-score),[9],0.437
same,glycan array binding signal (z-score),[10],2.21
same,glycan array binding signal (z-score),[11],-0.797
same,glycan array binding signal (z-score),[12],1.25
same,glycan array binding signal (z-score),[13],0.561
same,glycan array binding signal (z-score),[14],-1.04
same,glycan array binding signal (z-score),[15],-0.579
